Library screen at single concentrations

Protein sequences, listed by entry. Tags and fused reporters are not part of them. Residues count along the entry.
UniProt P9WNZ1, whole entry: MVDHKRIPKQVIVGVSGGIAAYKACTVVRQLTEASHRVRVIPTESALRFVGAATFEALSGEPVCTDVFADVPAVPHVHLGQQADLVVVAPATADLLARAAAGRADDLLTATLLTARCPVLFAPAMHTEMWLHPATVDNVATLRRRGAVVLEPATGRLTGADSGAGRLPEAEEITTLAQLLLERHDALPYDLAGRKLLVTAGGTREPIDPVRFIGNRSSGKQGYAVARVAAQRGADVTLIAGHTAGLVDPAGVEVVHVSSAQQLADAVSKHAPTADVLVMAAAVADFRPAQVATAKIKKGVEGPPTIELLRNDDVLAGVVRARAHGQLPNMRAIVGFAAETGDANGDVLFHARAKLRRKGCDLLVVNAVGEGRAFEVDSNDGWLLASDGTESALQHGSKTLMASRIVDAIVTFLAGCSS
UniProt P9WFT3, whole entry: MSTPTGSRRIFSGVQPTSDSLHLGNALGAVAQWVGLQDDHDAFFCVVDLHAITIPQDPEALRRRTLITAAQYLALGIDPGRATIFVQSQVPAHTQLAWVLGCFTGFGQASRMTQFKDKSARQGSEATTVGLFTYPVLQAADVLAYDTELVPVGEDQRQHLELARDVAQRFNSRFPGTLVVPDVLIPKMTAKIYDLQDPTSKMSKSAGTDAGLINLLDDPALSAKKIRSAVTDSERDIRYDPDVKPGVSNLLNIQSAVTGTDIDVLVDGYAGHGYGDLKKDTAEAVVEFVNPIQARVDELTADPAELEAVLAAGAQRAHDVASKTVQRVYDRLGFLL
UniProt A4I591, 1-473: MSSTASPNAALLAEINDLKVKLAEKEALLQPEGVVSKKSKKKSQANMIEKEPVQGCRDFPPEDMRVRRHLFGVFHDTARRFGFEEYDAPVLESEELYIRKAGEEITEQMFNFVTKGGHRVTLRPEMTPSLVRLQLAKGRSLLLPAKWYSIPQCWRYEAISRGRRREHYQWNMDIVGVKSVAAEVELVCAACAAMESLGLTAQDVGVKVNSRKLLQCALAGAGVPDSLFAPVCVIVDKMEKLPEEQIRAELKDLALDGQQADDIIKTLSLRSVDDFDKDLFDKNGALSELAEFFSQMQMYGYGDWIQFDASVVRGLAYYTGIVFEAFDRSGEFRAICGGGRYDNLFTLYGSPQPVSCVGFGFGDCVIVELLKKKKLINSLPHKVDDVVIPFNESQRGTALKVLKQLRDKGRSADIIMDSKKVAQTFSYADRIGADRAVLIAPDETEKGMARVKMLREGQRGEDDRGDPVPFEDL

Measurements from “University of Dundee, Small-Polar-MMV Screening Library” (2021), ChEMBL document CHEMBL3988442.

A: 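Enzyme assay of CoaBC with a phosphate dye (Biomol Green) read at 650 nm. Target: Coenzyme A biosynthesis protein CoaBC, Mycobacterium tuberculosis (UniProt P9WNZ1). Concentration: 30 µM. Direction is inferred from only a few compounds that gave an IC50; most scored high, so higher reads as stronger inhibition. Most strong results did not repeat in a second test. About 67,000 compounds were tested under these conditions; 0.06% (about 40) showed 50% or more at least once.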
B: 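Assay of Toxoplasma gondii numbers, read through their beta-galactosidase reporter with a colour substrate. Tested at 10 µM. The record gives no direction; the compounds picked for IC50 retests had high values, so higher reads as fewer parasites. About 67,000 compounds were tested under these conditions; 0.38% (about 260) showed 50% or more at least once.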
C: 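Cell assay of Leishmania donovani living inside macrophages; the read-out is not stated. Concentration: 30 µM. Higher reads as stronger inhibition (inferred: compounds with an IC50 in retests scored well above the rest). About 69,000 compounds were tested under these conditions; 1.5% (about 1,000) showed 50% or more at least once.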
D: 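Enzyme assay of tryptophanyl-tRNA synthetase; the read-out is not stated. Target: Tryptophan-tRNA ligase, Mycobacterium tuberculosis (UniProt P9WFT3). Tested at 10 µM. Direction is not recorded; retested compounds ran higher, which suggests that high means inhibition. Size under these conditions: about 65,000 compounds, about 64 of them at 50% or above in at least one test.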
E: 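Enzyme assay of histidyl-tRNA synthetase; the read-out is not stated. Target: Histidine-tRNA ligase, Leishmania infantum (UniProt A4I591). Concentration: 30 µM. The record gives no direction; compounds that gave an IC50 in retests scored well above the rest, so higher reads as stronger inhibition. The assay is labelled LdHisRS but filed under L. infantum. Size under these conditions: about 69,000 compounds, about 410 of them at 50% or above in at least one test.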

Each number is a percent effect as filed.
The controls that fix the scale are not given in the record; negative values are as filed.
Compounds were drawn at random from those tested, without regard to their results.
Two or more numbers in one place are separate tests of the same structure; such repeats can differ widely.
A dash means the value is not listed here; it may have been measured.

SMILES | A | B | C | D | E
FC(F)C(F)(F)COCc1ncnn1-c1ccc2c(c1)OCO2 | 0.2451 | 0.5823 | 10.84 | 3.21 | 20
CN(Cc1nncn1-c1cccc(C(F)(F)F)c1)S(C)(=O)=O | 4.883 | 1.553 | 32.78 | -2.094 | 6.195
Cn1cccc1C(O)CNC(=O)COc1ccccc1F (centres unmarked) | 6.977 | 11.2 | 18.06 & 24.91 | -3.875 | 15.65
Cc1ccc(C(=O)N2CCOC(c3ncc(CN(C)C)[nH]3)C2)cc1F (centres unmarked) | -1.456 | 2.194 | 19.38 | -3.453 | 15.71
FC1(F)CCNCC12CCN(c1cccnc1)C2 (centres unmarked) | -7.917 | - | - | 12.2 | 7.692
CC(C)c1nc(C2CCCN2C(=O)c2nccnc2N)no1 (centres unmarked) | 12.82 | 10.88 | 3.75 | -0.2916 | 27.69
CN(Cc1cn2c(n1)CN(C(=O)c1cccnc1)CC2)Cc1ccco1 | 2.737 | 0.6772 | 12.42 & 3.045 | 5.02 | 13.27
CCn1nnc(NCc2ccccc2OCc2ccc(Cl)cc2)n1 | -9.091 | -1.289 | -7.436 | -4.58 | -16.44
O=C(NCC1CC1)c1c2c(N3CCCC3)ncnc2n2ccccc12 | -0.8403 | -1.486 | 5.561 | 4.185 | 7.273
CN(C)c1ncccc1CNC(=O)N1CCCC1CN1CCCC1 (centres unmarked) | 3.182 | 17.66 | -12.73 | 67.75 | 3.571
Cc1ccnn1CC(=O)N(C)Cc1cnn(-c2ccccc2)c1 | -1.09 | -9.164 | 13.82 | 0 | 5.435
c1cc(-c2ccc3nc(C4CCN(CC5CC5)CC4)nn3c2)cs1 | 2.836 | - | - | -0.3003 | 16.13
CCN1CCC2(CC1)NC(=O)c1cc(Br)ccc1-n1nnnc12 | 0.2336 | 13.37 | -20.53 | -3.219 | 18.58
[H][C@@]12CCCCN(C)[C@]1([H])[C@@H](c1ccccc1)CCN2C(=O)c1cnccn1 | - | 22.49 | -8.263 | - | -
Cc1ccc(CN2CCC3(CC2)CC(c2cccnc2)CO3)s1 (centres unmarked) | -1.449 | - | - | -1.689 | 17.31
Cc1ccc(CNC(=O)Nc2cc(C(F)(F)F)c[nH]c2=O)cn1 | -0.4219 | -6.339 | 17.3 | 1.706 | 12.5
COC(=O)CCC(=O)N1CCc2nc(C(=O)N(C)C)sc2CC1 | - | -9.008 | 17.74 | 1.187 | 13.79
CN1CCc2c(CNC(=O)c3nccn3C)cncc2C1 | 0.7389 | - | - | -4.007 | -2
Cc1nc[nH]c1C(=O)N1CCC2(CC1)CN(CCN(C)C)C(=O)O2 | -5.423 | 14.74 | 12.56 | 4.873 | 6.25
Cc1cc(NC(=O)c2nc(N3CCCC3)ncc2Cl)ccc1Br | 9.476 | -1.212 | 1.397 | -7.467 | 3.03
Cc1nc(O)c2nnn(C[C@H]3CCCN3C(=O)c3cccs3)c2n1 | -4.902 | 11.82 | -7.659 | - | 5.208
CCC1=N[C@@]2(CC[C@@H]3CN(C(=O)NCc4ccccc4)C[C@@H]32)C(=O)N1C | -1.416 | - | - | 6.424 | -1.961
Cc1nn(C)c(N2CCOCC2)c1CNC1CCc2ccccc2C1 (centres unmarked) | -8.483 | - | 12.91 | -1.18 | -7.865
Cc1nnc(NCC(c2ccco2)N(C)C)c(C#N)c1C (centres unmarked) | 5.909 | 5.889 | 32.57 | -4.312 | 54.79
O=C(N1CCOCC1)[C@@]12CCO[C@@H]1CCN(CCN1CCCCC1)C2 | -0.1346 | - | - | 2.01 | 15.53
Cn1nccc1-c1cnc2n1CCC21CCN(C(=O)C2(C)CC2)CC1 | -0.8663 | 13.19 | 32.77 | - | 13.86
CN(C)c1cc(CNC(=O)c2ccc(O)nc2)ccn1 | 3.133 | 0.09911 | -49.2 | 12.92 | 9.735
OCCC1CN(c2ncnc3[nH]cnc23)CCN1Cc1cccs1 (centres unmarked) | 6.723 | 5.211 | 10.24 | 1.887 | 12.82
Cc1cc(CN(C)C(=O)C2CC(c3cccc(F)c3)=NO2)no1 (centres unmarked) | 3.169 | 11.28 | 0.8909 | 2.449 | 21.52
O=C1CO[C@H]2CN(Cc3cccc(F)c3F)C[C@@H]2N1C1CCOCC1 | 11.74 | - | - | 20.55 | 6.207
Cc1nc(CN2CCOCC3(CCN(c4ccccn4)C3)C2)cs1.O=C(O)C(F)(F)F.O=C(O)C(F)(F)F (centres unmarked) | - | 6.964 | -50.2 | - | -
CC(=O)c1ccc(OCC(=O)NS(=O)(=O)c2ccc(C)s2)cc1 | 3.675 | -6.778 | 2.939 | -1.261 | 13.56
Cc1cc(F)ccc1N1CCCC(NS(=O)(=O)CCCF)C1=O (centres unmarked) | -0.3968 | -1.233 | 13.61 | -9.276 | 0.8929
[H][C@]12CN(C)CCN1C[C@@H](CO)[C@@H]2c1ccccc1 | - | -50.52 | 9.263 | - | -
Cc1[nH]c2ccccc2c1CCNc1ncnc2c1CCNCC2 | -14.8 | 2.665 | 16.03 | -2.952 | 25.64
CN(C)C(=O)C1CCC2(CCN(C(=O)Nc3ccccc3)CC2)O1 (centres unmarked) | 4.827 | -26.71 | -1.297 | - | 13.86
Cc1nc(CN2CCC(O)(c3ccccc3F)CC2)c2ccccn12.O=C(O)CC(O)(CC(=O)O)C(=O)O | - | 5.589 | 6.696 | - | -
COc1cc(C)c(C(C)NC(=O)NCCCn2cncn2)cc1OC (centres unmarked) | 10 | 13.63 | 13.39 | 0.5191 | 10.71

Once more, the final 3:

SMILES,A,B,C,D,E
CN(C)C(=O)C1CCC2(CCN(C(=O)Nc3ccccc3)CC2)O1 (centres unmarked),4.827,-26.71,-1.297,-,13.86
Cc1nc(CN2CCC(O)(c3ccccc3F)CC2)c2ccccn12.O=C(O)CC(O)(CC(=O)O)C(=O)O,-,5.589,6.696,-,-
COc1cc(C)c(C(C)NC(=O)NCCCn2cncn2)cc1OC (centres unmarked),10,13.63,13.39,0.5191,10.71